For 1 substance, binding results are on record in paper PMC10762069.

By UniProt entry, the sequences of proteins in these tests, tags left out.
UniProt O35129: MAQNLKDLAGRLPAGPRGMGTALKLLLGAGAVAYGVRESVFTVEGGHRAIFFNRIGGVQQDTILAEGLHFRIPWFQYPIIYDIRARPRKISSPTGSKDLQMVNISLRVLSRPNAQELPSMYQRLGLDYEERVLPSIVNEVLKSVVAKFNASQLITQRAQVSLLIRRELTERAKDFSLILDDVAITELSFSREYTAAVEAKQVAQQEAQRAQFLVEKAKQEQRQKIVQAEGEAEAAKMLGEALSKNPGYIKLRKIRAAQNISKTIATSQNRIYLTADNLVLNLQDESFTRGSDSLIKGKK

Results are given in words; binding and its absence hold for the method and conditions named. Binding seen in cells or lysates may run through a third protein. A yes stands for co-enrichment or nearness to the bait. Other partners may have been found. Tags and fused reporters may be left off the sequences shown.

For the assay, the target named is T1, His-tagged GCA (grancalcin) (UniProt Q8VC88).
T1 sequence: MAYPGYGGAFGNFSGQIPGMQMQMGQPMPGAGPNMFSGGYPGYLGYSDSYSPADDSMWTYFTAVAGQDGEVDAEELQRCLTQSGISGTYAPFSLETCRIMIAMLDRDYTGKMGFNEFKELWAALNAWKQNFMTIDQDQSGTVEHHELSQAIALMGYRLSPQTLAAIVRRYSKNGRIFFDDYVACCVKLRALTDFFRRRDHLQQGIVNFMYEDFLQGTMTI
Nature of the assay: affinity purification with mass spectrometry; cytomembrane proteins of differentiated 3T3-L1 adipocytes incubated with His-tagged GCA; pulled down by nickel beads; mass spectrometry; only the target purified.

In the case of “Prohibitin-2 (PHB2), endogenous in 3T3-L1 adipocytes (from UniProt O35129 1-299)”, the binding entry is recorded as “binds”.
